# Assay results reported in PMC3846746.
# Biological target: T1, caveolin-1 (rat (endogenous in A7r5)) (UniProt P41350)
# T1 sequence: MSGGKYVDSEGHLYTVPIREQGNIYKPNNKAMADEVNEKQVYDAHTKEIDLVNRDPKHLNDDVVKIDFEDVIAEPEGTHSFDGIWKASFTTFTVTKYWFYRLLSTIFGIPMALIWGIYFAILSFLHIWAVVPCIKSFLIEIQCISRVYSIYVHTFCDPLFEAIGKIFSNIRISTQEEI
# Assay: co-IP; immunoprecipitation experiments told only in the discussion, no figure; which antibody precipitated is not told
substance,measurement,value
IQ motif containing GTPase activating protein 1 (rat (endogenous in A7r5)),binding,no binding

# Results are given in words; binding and its absence hold for the method and conditions named. In cells and extracts the contact can be indirect.
